# No constants are given. Whether binding was seen depends on the method and setting. Some results given as binding are weak or reduced against the parent protein; the word gives no strength.
# Sequences of proteins named here, by UniProt entry; tags and fusion partners are left off. Residues count along the entry.
# UniProt P00760, residues 24-246: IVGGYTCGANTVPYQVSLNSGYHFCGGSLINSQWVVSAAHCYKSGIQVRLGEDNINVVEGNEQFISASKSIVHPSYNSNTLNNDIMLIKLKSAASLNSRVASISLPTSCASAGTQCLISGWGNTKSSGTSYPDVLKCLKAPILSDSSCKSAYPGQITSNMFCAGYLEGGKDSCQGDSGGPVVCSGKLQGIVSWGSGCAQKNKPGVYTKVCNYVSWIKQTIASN
# Biological target: bovine trypsin (bovine) (UniProt P00760)
# Assay: inhibition kinetics of bovine trypsin, BApNA substrate
binder,measurement,value
EPICTNCCAGLKGCNYYNADGTFICEGESDPNHPKACPKNCDPNIAYS [inhibitory repeat domain IRD-7 of Capsicum annuum Pin-II proteinase inhibitors (CanPIs)],binding,binds

# Reference: patent US20150087584A1
